Source: the supplement of paper PMC6411743
± gives the standard deviation of the averaged measurements. The list shows a part of the results, in another mix than the full data. Most entries show no effect beyond the scatter of the controls.

Compound: Nc1ncnc2c1ncn2[C@@H]1O[C@H](COP(=O)(O)OP(=O)(O)OP(=O)(O)O)[C@@H](O)[C@H]1O [adenosine triphosphate]
Assay: NP40-soluble protein abundance relative to vehicle (solubility fold change) (ratio); higher = more soluble protein in presence of ATP
Summary of the method: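 Jurkat crude lysate prepared with a Dounce homogeniser was treated at eight concentrations spanning 0.1 to 10 mM, 10 min at room temperature then 3 min at 37 °C. Solubilisation with 0.8% NP40 and benzonase and ultracentrifugation preceded TMT labelling of the supernatant for LC-MS/MS. Fold change against the detergent-processed vehicle was determined per replicate from vsn-normalised intensities, across three independent experiments.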

Target	NP40-soluble protein abundance (concentration: 0.1mM)	NP40-soluble protein abundance (concentration: 0.5mM)
D6RD47 and related entries (UniProt P62266)	0.915 ± 0.062	0.932 ± 0.071
A2A2F0 and related entries (UniProt Q86X10)	1.042 ± 0.0072	1.03 ± 0.015
B4DH95 and related entries (UniProt Q6P9H5)	0.998 ± 0.047	1 ± 0.032
C9J066 and related entries (UniProt Q8N4C6)	1.04 ± 0.059	1.05 ± 0.051
C9JPC9 and related entries (UniProt Q9H9J4)	0.984 ± 0.06	0.939 ± 0.05
A8MUS3 and related entries (UniProt P62750)	0.904 ± 0.1	0.887 ± 0.059
D3YTA9 and related entries (UniProt H7BYZ3+F6U1T9+P63098+D3YTA9)	0.937 ± 0.012	0.875 ± 0.077
B4DGU4 and related entries (UniProt P35222)	1.06 ± 0.068	1.03 ± 0.11
B1AKC9 and related entries (UniProt P29323)	1.03 ± 0.16	1.03 ± 0.17
A0A0U1RQQ9|Q6P3W7 (UniProt Q6P3W7)	1 ± 0.024	1.04 ± 0.06
A0A0G2JNC5|A0A0G2JNH7|F8WCM8 and related entries (UniProt O15197)	1.07 ± 0.052	1.02 ± 0.025
UniProt B4DLN1	0.952 ± 0.018	0.907 ± 0.016
UniProt A6QL63 and related entries	1.02 ± 0.039	1.01 ± 0.028
UniProt A3KMH1 and related entries	1.019 ± 0.0077	0.979 ± 0.029
D4Q8H0 and related entries (UniProt Q9NYL2+D4Q8H0)	1.036 ± 0.0056	1.02 ± 0.052
C9J0I9 and related entries (UniProt Q86WB0)	1.02 ± 0.024	1.03 ± 0.013
B7Z1T1 (UniProt O00258)	1.11 ± 0.076	1.05 ± 0.039
B9A054 and related entries (UniProt Q8TEB9)	1.03 ± 0.11	0.979 ± 0.027
A8MU27 and related entries (UniProt P55854)	0.884 ± 0.098	0.855 ± 0.21
D3YTB1 and related entries (UniProt P62910)	0.903 ± 0.12	0.9 ± 0.1
UniProt A2RTX5 and related entries	1.01 ± 0.048	1 ± 0.082
C9JYE9 and related entries (UniProt Q15329)	1.02 ± 0.025	0.995 ± 0.067
C9JA69 and related entries (UniProt Q8WY36)	1.1 ± 0.093	1.03 ± 0.015
D6RER5 and related entries (UniProt Q9NVA2)	1.03 ± 0.037	1.08 ± 0.078

Target	NP40-soluble protein abundance (concentration: 0.1mM)	NP40-soluble protein abundance (concentration: 0.5mM)
A0A0G2JLB3|A0A0G2JNZ0|A0A0G2JNZ5|P04062 and related entries (UniProt P04062)	1.01 ± 0.076	0.927 ± 0.088
HACD1 (UniProt B0YJ81)	1.08 ± 0.046	1.11 ± 0.13
B5MCF9 and related entries (UniProt O00541)	0.975 ± 0.017	1.03 ± 0.033
SH3PXD2B (UniProt A1X283)	1.01 ± 0.011	0.994 ± 0.079
D4PHA4 and related entries (UniProt Q86WP2)	1.05 ± 0.092	0.997 ± 0.092
C9IYN7 and related entries (UniProt Q0PNE2)	1.04 ± 0.12	1.04 ± 0.096
A0A0U1RRM4|A6NLN1 and related entries (UniProt P26599)	0.987 ± 0.074	0.919 ± 0.15
B4DK77 and related entries (UniProt Q9H6K4)	0.985 ± 0.022	0.867 ± 0.084
B5MDF5 and related entries (UniProt P62826)	1.04 ± 0.061	1.03 ± 0.032
B0QY95 and related entries (UniProt Q9NQG6+B0QY95)	1.02 ± 0.025	1 ± 0.014
B5MC15 and related entries (UniProt Q13191)	0.994 ± 0.1	1.08 ± 0.068
B7ZM99 and related entries (UniProt Q6UB35)	1.03 ± 0.059	1.05 ± 0.043
C9J4Z3 and related entries (UniProt P61513)	1.02 ± 0.13	0.937 ± 0.095
UniProt A5PLN9 and related entries	1.02 ± 0.044	1.01 ± 0.03
B7Z9U0 and related entries (UniProt Q9UFF9)	1.04 ± 0.081	1.03 ± 0.1
C9J185 and related entries (UniProt Q9NZJ5)	1.06 ± 0.074	1.01 ± 0.1
UniProt A6NHX0	1.04 ± 0.18	1.02 ± 0.034
A0A0G2JIR1|A0A0G2JIS2|A0A0G2JK64|A2ABF8 and related entries (UniProt Q96KQ7)	1.02 ± 0.077	1.03 ± 0.043
B0QYK0 and related entries (UniProt Q01844)	0.971 ± 0.0099	0.986 ± 0.029
D6RHU3 and related entries (UniProt P55212)	1.05 ± 0.067	1.04 ± 0.11
D6RA92 and related entries (UniProt Q9UM13)	1.07 ± 0.078	1.11 ± 0.062
A6NEM2 and related entries (UniProt P51610)	0.97 ± 0.014	0.987 ± 0.033
C9JNW5 and related entries (UniProt P83731)	0.885 ± 0.042	0.903 ± 0.025
D3DSM0 and related entries (UniProt P05107)	1.02 ± 0.049	1.01 ± 0.047

Target	NP40-soluble protein abundance (concentration: 0.1mM)	NP40-soluble protein abundance (concentration: 0.5mM)
B4DIG0 and related entries (UniProt P30305)	1.02 ± 0.036	1.01 ± 0.056
C9JLV4 and related entries (UniProt O14727)	1.06 ± 0.064	1.01 ± 0.052
UniProt A2RRP1 and related entries	1.04 ± 0.04	1.02 ± 0.032
D6RAM1 and related entries (UniProt P31943)	1.04 ± 0.035	1.06 ± 0.042
B0QZ65 and related entries (UniProt Q14C86)	1.01 ± 0.028	0.991 ± 0.018
D6RA71 and related entries (UniProt P78317)	0.938 ± 0.075	0.98 ± 0.015
B7ZBM3 and related entries (UniProt Q8IVH2)	0.902 ± 0.034	0.929 ± 0.082
A0A0J9YWD5|A0A0J9YYB5|B7ZM65 and related entries (UniProt Q9P1Y6)	0.944 ± 0.073	0.964 ± 0.073
B4DZS0 and related entries (UniProt O76075)	1.05 ± 0.045	1.05 ± 0.027
A6NCE7 and related entries (UniProt Q9GZQ8+H3BTL1+A6NCE7)	0.976 ± 0.038	0.993 ± 0.052
C9J7Z4 and related entries (UniProt Q8NCE0)	1.012 ± 0.0068	1.06 ± 0.12
ILVBL (UniProt A1L0T0)	0.987 ± 0.022	1 ± 0.045
D3YTK1 and related entries (UniProt Q9C0K0)	1.03 ± 0.073	1.07 ± 0.082
B4DRN8 and related entries (UniProt Q5W0Z9)	1.03 ± 0.07	1.07 ± 0.048
FAM171A2 (UniProt A8MVW0)	0.947 ± 0.1	0.901 ± 0.059
A0A0J9YYJ3|Q9Y519 (UniProt Q9Y519)	1.06 ± 0.091	1.03 ± 0.012
C9JIZ6 and related entries (UniProt P07602)	0.907 ± 0.063	0.855 ± 0.11
B3KS98 and related entries (UniProt O15372)	0.939 ± 0.049	0.958 ± 0.078
A8MQ02 and related entries (UniProt P55196)	1.08 ± 0.0027	1.08 ± 0.046
C9J2Q2 and related entries (UniProt Q8N5M1)	1.06 ± 0.056	1.1 ± 0.16
C9JSZ1 and related entries (UniProt Q96AE4)	0.943 ± 0.023	0.935 ± 0.023
C9J5X1 and related entries (UniProt P08069)	0.976 ± 0.018	0.968 ± 0.036
UniProt A0JNW5 and related entries	1.03 ± 0.1	1.04 ± 0.025
A2A2V1 and related entries (UniProt P04156+A2A2V1)	1.015 ± 0.0053	0.863 ± 0.11

Target	NP40-soluble protein abundance (concentration: 0.1mM)	NP40-soluble protein abundance (concentration: 0.5mM)
A0A0U1RR27|Q7Z401 and related entries (UniProt Q7Z401)	0.982 ± 0.08	0.986 ± 0.075
UniProt A5YKK6 and related entries	1.06 ± 0.051	1.16 ± 0.048
UniProt A2RUC4 and related entries	1.04 ± 0.14	1.04 ± 0.084
B8ZZ50 and related entries (UniProt O60573)	0.966 ± 0.028	1.08 ± 0.018
D6RGV5 and related entries (UniProt P14406)	0.908 ± 0.12	0.838 ± 0.18
B8ZZU6 and related entries (UniProt P15336)	0.924 ± 0.057	0.905 ± 0.011
A0A0R4J2E2|Q9Y3T6 and related entries (UniProt Q9Y3T6)	1.04 ± 0.026	1.01 ± 0.048
D6RA37 and related entries (UniProt Q13454)	1.03 ± 0.061	0.993 ± 0.015
A0A0U1RQT7|A0A0U1RQY7|Q8IXA3 and related entries (UniProt Q9HCP0)	1.02 ± 0.075	1.17 ± 0.14
C9J6B1 and related entries (UniProt P11234)	1.04 ± 0.081	1.05 ± 0.045
B0QZ40 and related entries (UniProt Q7Z4G1)	0.852 ± 0.064	0.857 ± 0.098
B4DJV2 and related entries (UniProt O75390)	0.78 ± 0.22	0.814 ± 0.2
C9J2V2 and related entries (UniProt Q9Y6K9)	0.996 ± 0.041	0.945 ± 0.048
C9JRZ6 and related entries (UniProt Q9NX63)	0.98 ± 0.1	0.983 ± 0.035
C9JA28 and related entries (UniProt Q9UNL2)	1.04 ± 0.032	1.01 ± 0.076
C9IZL5 and related entries (UniProt O00189)	1.07 ± 0.15	1.07 ± 0.1
B7ZL14 and related entries (UniProt Q96RU3)	0.993 ± 0.011	0.991 ± 0.057
C9JLU1 and related entries (UniProt P52434)	1.03 ± 0.12	1.02 ± 0.1
A0A0G2JH68 (UniProt O60610)	0.976 ± 0.024	0.994 ± 0.048
C9JAX1 and related entries (UniProt Q16595)	0.901 ± 0.13	0.904 ± 0.18
B7Z3R9 and related entries (UniProt Q8TE99)	0.991 ± 0.012	1.02 ± 0.039
MEX3A (UniProt A1L020)	1.01 ± 0.1	1.03 ± 0.039
B4DR61 and related entries (UniProt P61619)	1.03 ± 0.11	1.04 ± 0.049

Individual results from above:
Entry of A0A0R4J2E2|Q9Y3T6 and related entries (UniProt Q9Y3T6) under NP40-soluble protein abundance (concentration: 0.1mM): 1.04 ± 0.026
Entry of SH3PXD2B (UniProt A1X283) under NP40-soluble protein abundance (concentration: 0.5mM): 0.994 ± 0.079

Quoted from the entries so far (3 entries):
Target	NP40-soluble protein abundance (concentration: 0.1mM)	NP40-soluble protein abundance (concentration: 0.5mM)
UniProt A2RUC4 and related entries	1.04 ± 0.14	1.04 ± 0.084
B8ZZ50 and related entries (UniProt O60573)	0.966 ± 0.028	1.08 ± 0.018
D6RGV5 and related entries (UniProt P14406)	0.908 ± 0.12	0.838 ± 0.18
